According to patent US7999089, “RNA aptamers and the uses thereof” (Industry-Academic Cooperation Foundation, Dankook University):
Results are given in words; binding and its absence hold for the method and conditions named. Binding seen in cells or lysates may run through a third protein. Some binding calls cover weakened binding; strength is not graded here.

Protein sequences, listed by entry. Tags and fused reporters are not part of them. Residues count along the entry.
UniProt P35222, residues 2-781: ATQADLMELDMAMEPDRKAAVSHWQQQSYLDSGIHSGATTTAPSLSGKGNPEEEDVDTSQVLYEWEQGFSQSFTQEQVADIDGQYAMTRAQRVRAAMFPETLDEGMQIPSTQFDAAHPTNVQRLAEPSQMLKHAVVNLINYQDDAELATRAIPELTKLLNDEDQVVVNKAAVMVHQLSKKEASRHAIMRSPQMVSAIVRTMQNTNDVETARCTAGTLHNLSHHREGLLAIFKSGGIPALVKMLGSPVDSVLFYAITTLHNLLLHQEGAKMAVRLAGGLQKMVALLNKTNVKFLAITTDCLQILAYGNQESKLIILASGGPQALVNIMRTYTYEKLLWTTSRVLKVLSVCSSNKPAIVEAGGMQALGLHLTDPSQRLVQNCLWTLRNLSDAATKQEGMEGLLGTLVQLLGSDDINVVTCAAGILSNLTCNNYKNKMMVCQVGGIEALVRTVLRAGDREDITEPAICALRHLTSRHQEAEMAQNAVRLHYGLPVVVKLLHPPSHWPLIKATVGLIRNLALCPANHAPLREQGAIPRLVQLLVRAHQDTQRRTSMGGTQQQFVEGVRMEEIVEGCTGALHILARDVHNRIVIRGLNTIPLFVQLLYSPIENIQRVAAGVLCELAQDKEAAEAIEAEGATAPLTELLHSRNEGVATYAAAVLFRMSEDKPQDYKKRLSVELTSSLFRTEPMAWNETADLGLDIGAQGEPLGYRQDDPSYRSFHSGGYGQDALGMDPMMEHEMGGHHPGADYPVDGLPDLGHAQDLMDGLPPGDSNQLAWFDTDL
UniProt P12830, residues 155-882: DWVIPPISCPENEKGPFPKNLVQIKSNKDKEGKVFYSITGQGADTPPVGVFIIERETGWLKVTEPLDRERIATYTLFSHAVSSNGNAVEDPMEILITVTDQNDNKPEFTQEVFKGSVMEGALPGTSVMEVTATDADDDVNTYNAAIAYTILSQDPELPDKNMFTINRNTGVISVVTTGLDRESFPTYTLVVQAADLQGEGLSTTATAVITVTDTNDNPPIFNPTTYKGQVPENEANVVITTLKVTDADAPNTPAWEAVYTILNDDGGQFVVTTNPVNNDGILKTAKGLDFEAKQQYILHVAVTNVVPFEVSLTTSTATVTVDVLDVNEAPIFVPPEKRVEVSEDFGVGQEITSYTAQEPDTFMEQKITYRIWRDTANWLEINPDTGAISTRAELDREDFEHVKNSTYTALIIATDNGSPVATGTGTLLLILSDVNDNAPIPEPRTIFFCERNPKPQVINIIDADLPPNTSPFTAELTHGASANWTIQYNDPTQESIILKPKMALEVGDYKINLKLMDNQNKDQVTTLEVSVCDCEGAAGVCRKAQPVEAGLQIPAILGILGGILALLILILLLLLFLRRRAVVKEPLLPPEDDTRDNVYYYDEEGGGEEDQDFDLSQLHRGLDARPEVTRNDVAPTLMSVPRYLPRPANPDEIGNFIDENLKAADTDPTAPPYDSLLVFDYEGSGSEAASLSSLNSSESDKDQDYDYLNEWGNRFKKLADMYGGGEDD

Target: β-catenin (endogenous, HCT116 cells) (human) (UniProt P35222)
Assay: co-immunoprecipitation from HCT116 cells expressing U6 vector or U6-aptamer, anti-β-catenin antibody

binding: binds
Substance: E-cadherin (from UniProt P12830 155-882)
